These are yes or no findings as the source states them, for the method shown. Some entries that bind do so weakly or less than the wild type.

Chains of the proteins cited; added tags and fusions are not shown. Lines headed by an entry give the natural chain unless they say otherwise; changes in a name come on top.
UniProt Q8N3F8: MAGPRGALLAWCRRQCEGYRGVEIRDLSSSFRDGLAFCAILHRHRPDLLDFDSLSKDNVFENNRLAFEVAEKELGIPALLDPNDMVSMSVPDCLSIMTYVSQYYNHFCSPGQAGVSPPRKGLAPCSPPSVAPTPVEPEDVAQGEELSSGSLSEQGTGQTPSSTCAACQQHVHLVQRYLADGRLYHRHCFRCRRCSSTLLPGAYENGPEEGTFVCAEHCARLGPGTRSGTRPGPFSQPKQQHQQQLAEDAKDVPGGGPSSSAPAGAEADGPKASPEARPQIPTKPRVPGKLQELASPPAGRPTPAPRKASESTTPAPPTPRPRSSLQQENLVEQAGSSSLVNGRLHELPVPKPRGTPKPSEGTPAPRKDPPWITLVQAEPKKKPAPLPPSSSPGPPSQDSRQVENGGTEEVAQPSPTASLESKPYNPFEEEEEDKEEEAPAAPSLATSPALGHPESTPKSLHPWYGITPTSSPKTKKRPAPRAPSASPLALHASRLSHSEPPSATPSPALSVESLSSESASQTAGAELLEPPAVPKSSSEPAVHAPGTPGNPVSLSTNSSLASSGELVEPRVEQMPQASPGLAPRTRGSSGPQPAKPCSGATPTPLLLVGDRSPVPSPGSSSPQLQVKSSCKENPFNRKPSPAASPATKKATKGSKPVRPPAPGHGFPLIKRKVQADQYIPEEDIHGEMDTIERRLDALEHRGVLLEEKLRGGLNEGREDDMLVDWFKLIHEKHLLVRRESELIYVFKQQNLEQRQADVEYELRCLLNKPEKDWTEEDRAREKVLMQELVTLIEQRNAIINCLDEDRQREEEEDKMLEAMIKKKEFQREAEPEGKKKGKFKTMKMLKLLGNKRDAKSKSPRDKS
UniProt Q13547: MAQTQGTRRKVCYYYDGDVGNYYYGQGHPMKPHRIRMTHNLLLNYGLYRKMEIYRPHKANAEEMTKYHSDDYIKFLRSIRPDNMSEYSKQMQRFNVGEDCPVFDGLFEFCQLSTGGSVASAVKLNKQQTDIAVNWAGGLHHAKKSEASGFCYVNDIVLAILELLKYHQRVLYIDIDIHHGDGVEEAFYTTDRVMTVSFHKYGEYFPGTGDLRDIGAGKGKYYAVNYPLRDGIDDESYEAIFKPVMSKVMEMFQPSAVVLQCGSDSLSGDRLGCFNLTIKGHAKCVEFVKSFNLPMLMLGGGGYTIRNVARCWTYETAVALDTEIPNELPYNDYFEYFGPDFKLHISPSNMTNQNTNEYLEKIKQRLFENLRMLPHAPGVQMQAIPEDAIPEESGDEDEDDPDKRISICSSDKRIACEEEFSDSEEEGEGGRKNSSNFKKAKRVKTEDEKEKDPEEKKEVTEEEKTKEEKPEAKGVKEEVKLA
UniProt Q99700: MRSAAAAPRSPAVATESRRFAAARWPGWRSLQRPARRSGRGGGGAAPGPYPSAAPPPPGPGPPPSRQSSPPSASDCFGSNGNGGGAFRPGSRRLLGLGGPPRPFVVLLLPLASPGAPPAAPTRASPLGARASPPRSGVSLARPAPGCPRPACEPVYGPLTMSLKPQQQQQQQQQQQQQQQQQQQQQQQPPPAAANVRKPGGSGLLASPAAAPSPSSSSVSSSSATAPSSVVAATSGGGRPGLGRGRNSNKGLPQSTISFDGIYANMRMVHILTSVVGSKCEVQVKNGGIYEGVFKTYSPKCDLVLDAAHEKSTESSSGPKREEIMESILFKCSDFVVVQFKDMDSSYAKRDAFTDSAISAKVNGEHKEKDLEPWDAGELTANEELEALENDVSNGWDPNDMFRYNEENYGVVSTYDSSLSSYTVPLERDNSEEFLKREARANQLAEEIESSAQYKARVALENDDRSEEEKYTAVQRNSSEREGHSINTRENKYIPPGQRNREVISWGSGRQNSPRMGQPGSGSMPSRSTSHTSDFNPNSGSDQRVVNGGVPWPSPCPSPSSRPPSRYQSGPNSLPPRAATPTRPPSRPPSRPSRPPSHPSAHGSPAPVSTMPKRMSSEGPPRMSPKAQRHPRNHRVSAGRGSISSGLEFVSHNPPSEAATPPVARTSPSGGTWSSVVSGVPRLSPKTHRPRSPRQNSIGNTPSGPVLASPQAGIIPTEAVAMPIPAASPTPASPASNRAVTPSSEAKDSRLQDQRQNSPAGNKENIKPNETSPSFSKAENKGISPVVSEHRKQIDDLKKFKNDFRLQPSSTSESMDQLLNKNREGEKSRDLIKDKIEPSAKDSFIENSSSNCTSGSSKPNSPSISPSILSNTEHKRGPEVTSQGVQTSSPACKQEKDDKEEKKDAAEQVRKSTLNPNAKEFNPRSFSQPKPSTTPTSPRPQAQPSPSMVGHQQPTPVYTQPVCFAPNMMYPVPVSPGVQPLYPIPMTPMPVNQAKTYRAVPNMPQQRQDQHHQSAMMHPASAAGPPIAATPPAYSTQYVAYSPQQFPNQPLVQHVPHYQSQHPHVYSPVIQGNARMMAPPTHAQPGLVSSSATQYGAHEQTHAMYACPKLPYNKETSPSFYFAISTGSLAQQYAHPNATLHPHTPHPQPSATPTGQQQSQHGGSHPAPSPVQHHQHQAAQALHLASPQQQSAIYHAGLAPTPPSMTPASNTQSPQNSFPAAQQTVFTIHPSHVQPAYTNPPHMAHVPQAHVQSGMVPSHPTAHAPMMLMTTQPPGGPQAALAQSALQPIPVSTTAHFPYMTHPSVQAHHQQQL
UniProt Q99962: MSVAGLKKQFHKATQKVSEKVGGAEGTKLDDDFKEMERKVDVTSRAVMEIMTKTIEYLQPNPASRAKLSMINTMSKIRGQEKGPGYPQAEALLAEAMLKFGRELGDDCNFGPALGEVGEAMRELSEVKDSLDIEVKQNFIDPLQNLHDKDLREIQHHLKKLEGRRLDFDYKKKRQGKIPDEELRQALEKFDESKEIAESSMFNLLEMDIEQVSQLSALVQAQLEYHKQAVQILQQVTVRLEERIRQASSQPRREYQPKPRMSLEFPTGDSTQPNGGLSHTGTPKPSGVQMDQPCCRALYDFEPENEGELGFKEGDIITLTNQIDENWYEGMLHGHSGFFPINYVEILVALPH
UniProt P15923: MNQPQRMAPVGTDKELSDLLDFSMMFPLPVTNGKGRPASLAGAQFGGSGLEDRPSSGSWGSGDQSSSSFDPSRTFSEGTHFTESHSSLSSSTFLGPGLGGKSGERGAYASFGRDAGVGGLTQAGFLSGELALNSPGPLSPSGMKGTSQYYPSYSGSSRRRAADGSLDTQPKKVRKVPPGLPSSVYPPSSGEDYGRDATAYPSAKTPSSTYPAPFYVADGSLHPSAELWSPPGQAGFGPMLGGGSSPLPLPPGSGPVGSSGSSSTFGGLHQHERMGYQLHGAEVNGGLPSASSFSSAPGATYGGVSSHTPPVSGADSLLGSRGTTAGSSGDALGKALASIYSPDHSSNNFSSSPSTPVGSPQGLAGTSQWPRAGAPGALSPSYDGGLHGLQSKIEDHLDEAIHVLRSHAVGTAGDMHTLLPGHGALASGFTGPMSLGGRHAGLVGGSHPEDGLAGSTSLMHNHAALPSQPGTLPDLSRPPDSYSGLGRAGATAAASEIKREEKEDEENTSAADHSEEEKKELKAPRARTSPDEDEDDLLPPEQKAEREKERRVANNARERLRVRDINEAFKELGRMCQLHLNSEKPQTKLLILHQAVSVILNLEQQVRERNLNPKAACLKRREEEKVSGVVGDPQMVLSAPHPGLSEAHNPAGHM
UniProt Q13136: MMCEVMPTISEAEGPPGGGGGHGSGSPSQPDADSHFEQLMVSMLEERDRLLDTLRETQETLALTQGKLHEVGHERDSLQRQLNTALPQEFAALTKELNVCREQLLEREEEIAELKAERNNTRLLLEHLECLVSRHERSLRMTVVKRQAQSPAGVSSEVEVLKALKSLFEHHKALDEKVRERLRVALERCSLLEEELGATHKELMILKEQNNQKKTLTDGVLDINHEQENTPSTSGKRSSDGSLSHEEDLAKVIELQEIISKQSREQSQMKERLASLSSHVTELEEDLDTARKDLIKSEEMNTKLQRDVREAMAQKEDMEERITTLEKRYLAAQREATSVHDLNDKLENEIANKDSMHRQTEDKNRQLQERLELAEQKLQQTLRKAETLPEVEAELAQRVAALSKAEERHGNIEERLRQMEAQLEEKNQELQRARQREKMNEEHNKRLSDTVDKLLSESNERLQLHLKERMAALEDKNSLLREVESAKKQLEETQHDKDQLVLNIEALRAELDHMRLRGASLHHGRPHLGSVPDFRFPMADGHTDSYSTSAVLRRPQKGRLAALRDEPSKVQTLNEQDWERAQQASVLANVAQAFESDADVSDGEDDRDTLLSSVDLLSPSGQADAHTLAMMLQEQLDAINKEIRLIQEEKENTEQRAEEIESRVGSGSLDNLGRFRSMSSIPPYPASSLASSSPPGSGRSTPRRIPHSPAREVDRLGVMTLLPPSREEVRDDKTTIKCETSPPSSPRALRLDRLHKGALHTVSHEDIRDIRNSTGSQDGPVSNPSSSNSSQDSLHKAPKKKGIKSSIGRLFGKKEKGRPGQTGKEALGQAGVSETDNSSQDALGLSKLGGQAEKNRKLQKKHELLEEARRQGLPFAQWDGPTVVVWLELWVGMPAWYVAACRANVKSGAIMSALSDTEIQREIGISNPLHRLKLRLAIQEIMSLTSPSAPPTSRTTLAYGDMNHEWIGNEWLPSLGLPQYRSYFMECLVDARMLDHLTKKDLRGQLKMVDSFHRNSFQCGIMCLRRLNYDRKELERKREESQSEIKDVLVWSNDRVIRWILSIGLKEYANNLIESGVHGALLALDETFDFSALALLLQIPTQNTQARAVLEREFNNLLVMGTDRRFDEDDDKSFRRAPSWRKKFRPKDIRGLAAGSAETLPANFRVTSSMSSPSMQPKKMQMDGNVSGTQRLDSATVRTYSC
UniProt O75145: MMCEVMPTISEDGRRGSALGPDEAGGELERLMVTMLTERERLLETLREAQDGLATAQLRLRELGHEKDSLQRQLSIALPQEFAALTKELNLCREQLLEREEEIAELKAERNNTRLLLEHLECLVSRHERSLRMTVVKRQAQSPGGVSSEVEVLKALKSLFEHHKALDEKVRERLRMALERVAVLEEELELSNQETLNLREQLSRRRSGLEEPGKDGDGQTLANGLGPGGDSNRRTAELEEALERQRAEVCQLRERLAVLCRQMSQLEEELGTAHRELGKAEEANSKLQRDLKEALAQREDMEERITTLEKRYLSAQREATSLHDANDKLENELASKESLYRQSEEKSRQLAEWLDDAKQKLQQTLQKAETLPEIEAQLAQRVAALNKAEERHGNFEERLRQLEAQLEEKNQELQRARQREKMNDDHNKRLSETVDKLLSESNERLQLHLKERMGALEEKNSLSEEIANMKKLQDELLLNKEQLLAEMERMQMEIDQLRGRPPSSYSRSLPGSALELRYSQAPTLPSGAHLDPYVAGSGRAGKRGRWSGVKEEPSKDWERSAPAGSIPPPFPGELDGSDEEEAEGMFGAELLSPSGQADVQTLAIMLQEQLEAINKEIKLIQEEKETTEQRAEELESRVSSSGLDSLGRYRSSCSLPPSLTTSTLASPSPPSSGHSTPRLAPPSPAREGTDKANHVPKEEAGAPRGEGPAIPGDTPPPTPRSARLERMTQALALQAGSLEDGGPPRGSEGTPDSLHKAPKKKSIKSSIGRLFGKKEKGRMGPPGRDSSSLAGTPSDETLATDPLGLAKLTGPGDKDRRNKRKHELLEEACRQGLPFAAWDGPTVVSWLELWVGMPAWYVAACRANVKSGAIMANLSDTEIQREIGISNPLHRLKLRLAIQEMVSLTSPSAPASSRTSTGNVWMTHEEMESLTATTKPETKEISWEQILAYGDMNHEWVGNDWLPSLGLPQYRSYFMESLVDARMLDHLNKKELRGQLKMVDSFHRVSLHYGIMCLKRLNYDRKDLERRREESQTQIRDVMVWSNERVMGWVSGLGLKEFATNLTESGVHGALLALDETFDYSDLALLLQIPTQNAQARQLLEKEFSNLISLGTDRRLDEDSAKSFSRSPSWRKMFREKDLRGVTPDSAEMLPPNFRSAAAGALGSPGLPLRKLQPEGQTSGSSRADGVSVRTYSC
UniProt P13202: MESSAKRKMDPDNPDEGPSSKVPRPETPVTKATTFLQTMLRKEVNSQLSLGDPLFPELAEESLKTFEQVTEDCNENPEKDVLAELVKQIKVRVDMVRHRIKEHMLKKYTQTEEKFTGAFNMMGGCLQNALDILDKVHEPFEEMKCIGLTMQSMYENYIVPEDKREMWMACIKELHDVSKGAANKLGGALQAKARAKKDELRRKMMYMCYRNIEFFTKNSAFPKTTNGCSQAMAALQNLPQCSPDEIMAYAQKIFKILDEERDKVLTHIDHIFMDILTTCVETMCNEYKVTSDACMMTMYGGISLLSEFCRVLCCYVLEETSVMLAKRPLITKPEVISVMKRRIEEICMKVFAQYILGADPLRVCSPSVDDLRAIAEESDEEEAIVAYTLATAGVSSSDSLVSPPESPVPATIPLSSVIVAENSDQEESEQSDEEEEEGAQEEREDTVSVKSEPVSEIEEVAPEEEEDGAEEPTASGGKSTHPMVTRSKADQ

Targets include KIAA1668 protein (human) (UniProt Q8N3F8); HDAC1 (human) (UniProt Q13547); Ataxin 2 (ATXN2) (human) (UniProt Q99700).
What all share (experiment): peptide or protein array; only the binder purified
The target of assay [1] is RNA binding motif protein 5 (human) (UniProt P52756).
For assay [2], the target named is Adenomatosis polyposis coli (APC) (human) (UniProt P25054).
The target of assay [3] is Phosphodiesterase 4D interacting protein (myomegalin) (human) (UniProt Q5VU43).
In assay [4] the target is Tumor rejection antigen (gp96) 1 (human) (UniProt P14625).
For assay [5], the target named is T1, Heterogeneous nuclear ribonucleoprotein F (HNRPF) (human) (UniProt P52597).
T1 sequence: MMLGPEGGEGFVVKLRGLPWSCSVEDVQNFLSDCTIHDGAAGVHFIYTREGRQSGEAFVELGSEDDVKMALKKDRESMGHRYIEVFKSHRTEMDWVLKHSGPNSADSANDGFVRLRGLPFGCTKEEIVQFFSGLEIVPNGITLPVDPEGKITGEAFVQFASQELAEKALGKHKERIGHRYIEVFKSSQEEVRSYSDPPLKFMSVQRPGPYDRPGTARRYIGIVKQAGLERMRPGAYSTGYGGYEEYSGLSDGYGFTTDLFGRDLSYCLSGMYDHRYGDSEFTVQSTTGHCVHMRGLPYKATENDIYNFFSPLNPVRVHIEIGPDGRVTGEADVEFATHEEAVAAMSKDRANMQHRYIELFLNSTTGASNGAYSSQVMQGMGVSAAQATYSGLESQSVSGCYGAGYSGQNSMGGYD

Assay [6] addresses Activating transcription factor 4 (ATF4) (human) (UniProt P18848).
The target of assay [7] is SH3-domain GRB2-like 2 (SH3GL2) (human) (UniProt Q99962).
Assay [8] concerns the target Transcription factor 3 (E2A immunoglobulin enhancer binding factors E12/E47) (TCF3) (human) (UniProt P15923).
Assay [9] concerns the target Bromodomain and PHD finger containing, 1 (BRPF1) (human) (UniProt P55201).
Assay [10] concerns the target Myeloid/lymphoid or mixed-lineage leukemia 2 (MLL2) (human) (UniProt O14686).
Assay [11] addresses Bromodomain and PHD finger containing, 3 (BRPF3) (human) (UniProt Q9ULD4).
Assay [12] has as its target Tankyrase 1 binding protein 1, (TNKS1BP1) (human) (UniProt Q9C0C2).
Assay [13] has as its target protein tyrosine phosphatase, receptor type, f polypeptide (PTPRF), interacting protein (liprin), alpha 1 (PPFIA1) (human) (UniProt Q13136).
Assay [14] concerns the target T2, Tripartite motif-containing 33 (TRIM33) (human) (UniProt Q9UPN9).
T2 sequence: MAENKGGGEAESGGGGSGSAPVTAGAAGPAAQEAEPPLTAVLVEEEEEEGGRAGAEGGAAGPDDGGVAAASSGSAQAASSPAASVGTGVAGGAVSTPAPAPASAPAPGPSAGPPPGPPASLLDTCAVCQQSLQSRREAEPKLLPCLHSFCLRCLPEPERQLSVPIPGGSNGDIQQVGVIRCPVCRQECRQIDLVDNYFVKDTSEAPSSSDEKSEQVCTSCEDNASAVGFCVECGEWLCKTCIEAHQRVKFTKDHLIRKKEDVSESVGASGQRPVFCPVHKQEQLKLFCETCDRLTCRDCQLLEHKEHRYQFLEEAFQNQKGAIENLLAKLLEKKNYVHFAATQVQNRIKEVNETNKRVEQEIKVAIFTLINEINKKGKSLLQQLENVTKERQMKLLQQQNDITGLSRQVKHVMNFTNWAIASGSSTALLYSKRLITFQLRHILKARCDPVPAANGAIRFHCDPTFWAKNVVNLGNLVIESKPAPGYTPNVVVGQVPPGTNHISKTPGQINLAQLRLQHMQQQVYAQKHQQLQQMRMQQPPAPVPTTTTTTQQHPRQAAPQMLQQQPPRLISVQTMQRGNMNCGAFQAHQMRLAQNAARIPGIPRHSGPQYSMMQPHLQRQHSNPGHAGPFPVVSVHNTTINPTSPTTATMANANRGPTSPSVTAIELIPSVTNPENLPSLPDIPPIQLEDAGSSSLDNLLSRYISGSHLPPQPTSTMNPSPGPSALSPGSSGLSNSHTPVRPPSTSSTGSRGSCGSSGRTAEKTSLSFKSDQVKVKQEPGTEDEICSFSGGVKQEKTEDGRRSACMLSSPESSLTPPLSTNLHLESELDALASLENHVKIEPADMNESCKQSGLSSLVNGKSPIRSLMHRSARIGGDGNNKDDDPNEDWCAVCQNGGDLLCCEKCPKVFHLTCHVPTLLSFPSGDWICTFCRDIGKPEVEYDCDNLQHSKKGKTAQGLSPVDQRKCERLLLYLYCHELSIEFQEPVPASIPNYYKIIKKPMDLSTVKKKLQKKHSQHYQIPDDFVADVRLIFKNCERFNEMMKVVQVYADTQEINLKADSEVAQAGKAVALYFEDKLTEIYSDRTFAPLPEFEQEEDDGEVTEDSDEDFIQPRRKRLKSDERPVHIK

The target of assay [15] is TPRDI (tetratricopeptide repeat) (human) (UniProt P53804).
The target in assay [16] is Protein tyrosine phosphatase, receptor type f polypeptide (PTPRF), interacting protein (liprin), alpha 3 (PPFIA3) (human) (UniProt O75145).

On to “Human cytomegalovirus immediate-early protein 1 (from UniProt P13202 1-491)”, for which the binding entry (in assay [1]; in assay [2]; in assay [3]; in [4]; with KIAA1668 protein (human); in assay [5]) was “binds” each time. Besides, the binding result in assay [6], in [7], in assay [8], in [9], in assay [10] and in [11] was “binds” in each case. Also, the binding result in assay [12] is given as “binds”; in assay [13] it was “binds”; in assay [14], “binds”; with HDAC1 (human), “no binding”; in assay [15], “binds”; in [16] it was “binds”. Also, the binding result with Ataxin 2 (ATXN2) (human) is “binds”.

The record behind these values is PMC3917433.
